This test concerns the target HsfA1d (endogenous) (Arabidopsis thaliana (endogenous in seedlings)) (UniProt Q9LQM7). Briefly: co-IP.

By UniProt entry, the sequences of proteins in these tests, tags left out.
UniProt Q9LQM7: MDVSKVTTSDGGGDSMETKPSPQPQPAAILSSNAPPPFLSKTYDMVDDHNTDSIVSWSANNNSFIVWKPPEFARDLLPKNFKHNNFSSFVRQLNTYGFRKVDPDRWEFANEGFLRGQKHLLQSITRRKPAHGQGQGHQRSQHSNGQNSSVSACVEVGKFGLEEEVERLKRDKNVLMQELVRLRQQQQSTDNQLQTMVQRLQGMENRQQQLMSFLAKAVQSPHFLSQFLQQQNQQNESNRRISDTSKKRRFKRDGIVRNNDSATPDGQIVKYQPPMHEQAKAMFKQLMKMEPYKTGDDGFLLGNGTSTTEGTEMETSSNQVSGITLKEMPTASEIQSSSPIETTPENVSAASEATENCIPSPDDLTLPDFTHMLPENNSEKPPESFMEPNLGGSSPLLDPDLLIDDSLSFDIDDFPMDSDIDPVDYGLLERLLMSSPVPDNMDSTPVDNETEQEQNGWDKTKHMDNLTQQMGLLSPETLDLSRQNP
UniProt P22953: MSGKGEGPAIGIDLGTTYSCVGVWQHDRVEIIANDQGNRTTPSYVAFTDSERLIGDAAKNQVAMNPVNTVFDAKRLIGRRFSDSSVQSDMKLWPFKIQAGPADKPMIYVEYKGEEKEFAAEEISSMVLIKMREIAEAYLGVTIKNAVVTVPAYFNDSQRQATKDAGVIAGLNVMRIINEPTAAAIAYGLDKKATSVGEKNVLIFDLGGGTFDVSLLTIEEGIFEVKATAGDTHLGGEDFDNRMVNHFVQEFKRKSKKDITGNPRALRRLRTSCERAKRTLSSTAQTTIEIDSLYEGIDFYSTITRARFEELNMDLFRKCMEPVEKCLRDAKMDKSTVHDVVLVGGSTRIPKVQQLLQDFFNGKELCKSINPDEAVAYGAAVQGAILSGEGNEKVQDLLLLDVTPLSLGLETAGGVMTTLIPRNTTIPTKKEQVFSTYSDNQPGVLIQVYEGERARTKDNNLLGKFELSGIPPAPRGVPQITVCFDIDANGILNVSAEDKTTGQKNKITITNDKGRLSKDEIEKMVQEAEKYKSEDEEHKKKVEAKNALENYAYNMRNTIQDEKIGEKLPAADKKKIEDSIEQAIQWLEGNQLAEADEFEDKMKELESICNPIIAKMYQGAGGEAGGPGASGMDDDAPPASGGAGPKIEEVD

These results are taken from doi:10.1101/2025.05.20.654906.

Results are given in words; binding and its absence hold for the method and conditions named. Binding seen in cells or lysates may run through a third protein. Some entries that bind do so weakly or less than the wild type.

Regarding Hsc70-1 (from UniProt P22953 1-651), the binding result was “binds”.
